No constants are given. Whether binding was seen depends on the method and setting. Binding seen in cells or lysates may run through a third protein. Some entries that bind do so weakly or less than the wild type. Tags and fused reporters may be left off the sequences shown.
What was measured:
RCP of NIH3T3 cells [1] = molecular target: RCP of NIH3T3 cells (UniProt O35427); assay: co-immunoprecipitation
RCP of NIH3T3 cells [2] = molecular target: RCP of NIH3T3 cells (UniProt O35427); assay: co-immunoprecipitation from NIH3T3 cells (GFP immunoprecipitation, anti-RCP blot)

Chains of the proteins cited; added tags and fusions are not shown.
UniProt O35427: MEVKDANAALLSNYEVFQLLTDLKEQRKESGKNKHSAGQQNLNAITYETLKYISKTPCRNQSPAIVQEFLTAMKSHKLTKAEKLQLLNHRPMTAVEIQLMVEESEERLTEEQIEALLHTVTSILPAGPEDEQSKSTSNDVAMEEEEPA

- binding (RCP of NIH3T3 cells [1]): binds
- binding (RCP of NIH3T3 cells [2]): binds
B1: fusion protein of the second intracellular loop of CLR and enhanced green fluorescent protein (L2/EGFP) (peptide, not shown: large carriers)
chain: LIVVAVFAEKQHLMWYYFLGWGFPLIPACIH

From patent US20110189205A1
